Test results as given in PubChem BioAssay AID1347075 (National Center for Advancing Translational Sciences (NCATS), 2019).
About 5,500 (1.4%) of roughly 400,000 compounds were called active. Inconclusive results, whose numbers are uncertain, are shown with a selection of clear calls. The call rests on the fitted dose curve; in most records, active means well fitted cell-killing curve with a large enough effect; inconclusive means small, poorly fitted or top-dose-only effect, or effect the other way; inactive means flat fitted curve, though single readings scatter. Potencies beside an inconclusive call are fits to weak or partial responses and may not hold up.

assay: qHTS assay for MDR1-selective chemotherapeutics: Primary screen using the parental adenocarcinoma cell KB-3-1; conditions: KB-3-1 viability, CellTiter-Glo ATP luminescence, 72 h; activity change, negative = cytotoxic: at 46.1 µM (top of the series); further: nearly all actives have a fitted effect of over 60% in size
Summary of the method: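 Multi-concentration cytotoxicity screen in KB-3-1 cells grown in DMEM lacking phenol red with 10% FBS. After 72 h at 37 °C with compound, ATP-dependent luminescence was recorded.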
On the % scale 0 is the no-effect control and ±100 the full control effect; potency means the concentration at half of the fitted maximal effect.

Compound	activity change, negative = cytotoxic	Potency
O=C(NCC1CCCO1)/C(=C/c1cn(-c2ccccc2)nc1-c1cccnc1)NC(=O)c1ccccc1 (centres undefined)	inactive: 10.2%	–
C=C1CCC2C(C)(C)[C@@H](O)CC[C@@]2(C)[C@@H]1COc1ccc2ccc(=O)oc2c1 (some centres undefined)	–	inconclusive: 25.9 µM [cytotoxic, partial curve, poor fit]
CC(CN1CCCCC1)OC(=O)C(C)(c1ccccc1)c1ccccc1 (centres undefined)	–	inconclusive: 29.1 µM [cytotoxic, single point]
Cc1ccc(S(=O)(=O)c2nc(Nc3ccccc3)sc2Cl)cc1	–	inconclusive: 13 µM [cytotoxic, partial curve, poor fit]
Cc1cc(C)cc(NC(=O)c2ccc3c(c2)nnn3C2CCCC2)c1	–	inconclusive: 6.51 µM [cytotoxic, full curve, poor fit]
CCOC(=O)c1cccc(NC(=O)c2cc3c(=O)n(C)c4ccccc4c3n2C)c1	inactive: 23.9%	–
CCc1nnc2c(Nc3cccc(F)c3)nc3ccc(C(=O)c4ccccc4)cc3n12	–	inconclusive: 23.1 µM [cytotoxic, single point]
CCN(CC(=O)Nc1c(F)cccc1F)C(=O)CSCC(=O)Nc1cccc(C)c1	–	inconclusive: 23.1 µM [rising, partial curve, poor fit]
CCCCC(=O)Nc1ccc(NC(=O)c2cnccn2)cn1	inactive: 14.8%	–
CCN(CC)c1ccc(/C=C2\CCC(/C=C(/C#N)C(=O)Nc3ccccc3F)=C2N2CCOCC2)cc1	inactive: 2.6%	–
Cc1ccc(N(Cc2ccccc2)C(=O)c2ccc(F)c(S(=O)(=O)N3CCOCC3)c2)cc1	–	inconclusive: 29.1 µM [cytotoxic, single point]
O=C(CCCN1C(=O)c2cccnc2Oc2ccc(Cl)cc21)NCc1ccccc1F	inactive: 3.15%	–
CN1/C(=C\C(=O)COC(=O)CN2C(=O)C3CC=CCC3C2=O)C(C)(C)c2ccccc21 (centres undefined)	inactive: -1.69%	–
Nc1ccc2c3c(cccc13)C(=O)N(c1ccccc1)C2=O	–	inconclusive: 16.4 µM [rising, single point]
COC(=O)c1cc(C(=O)N2CCN(c3ccccc3OC)CC2)cc([N+](=O)[O-])c1	–	active: 1.16 µM
Cc1ccc(CNC(=O)CC(C)CC2=NS(=O)(=O)c3ccccc3N2)cc1 (centres undefined)	inactive: -5.81%	–
CCNc1nc(NC(C)(C)C)nc(SCC(N)=O)n1	inconclusive: 5.47%	–
CCOc1ccc(-c2nonc2NC(=O)c2oc3cc(C)c(C)cc3c2C)cc1OCC	inactive: -4.69%	–
CCC(C)c1ccc(NC(=O)C2CCCN(c3ncccn3)C2)cc1 (centres undefined)	–	active: 10 µM
Cc1ccc(C(=O)N/N=C\c2ccc(Br)o2)o1	inactive: -1.21%	–
Cc1cc(C)c(S(=O)(=O)c2ccccc2C)c(OCCN(C)C)n1	inactive: 0.459%	–
CN(C)CCCNS(=O)(=O)c1ccc(NC2CCCCCC2)c([N+](=O)[O-])c1	–	active: 18.4 µM

Compound	activity change, negative = cytotoxic	Potency
Fc1ccc2c(c1)C(c1ccc(N3CCOCC3)cc1)=NNC(c1cccs1)=N2	–	inconclusive: 18.4 µM [cytotoxic, single point]
COC(=O)[C@]12CCCCC=C1N(CCC1=CCCCC1)C(=O)[C@H](CC(=O)NCc1ccc(OC)c(OC)c1)C2	–	inconclusive: 29.1 µM [cytotoxic, single point]
O=S(=O)(NCCc1ccc(Cl)cc1)c1cccc2cccnc12	inactive: -0.0038%	–
O=C(NC12CC3CC(CC(C3)C1)C2)N1CCN(S(=O)(=O)c2ccc(Cl)cc2)CC1	–	inconclusive: 20.6 µM [cytotoxic, single point]
CCC(C(=O)NCCc1ccc(OC)cc1OC)n1nc(C)n2c(cc3occc32)c1=O (centres undefined)	inconclusive: -11.6%	–
COc1ccccc1C(=O)NCCn1cc(SCc2ccc(C)cc2)c2ccccc21	inactive: -12%	–
COc1ccc(C2CC(=O)N(Cc3ccc(F)cc3)c3ccccc3S2)cc1OC (centres undefined)	–	inconclusive: 23.1 µM [cytotoxic, single point]
C[C@]12C(=O)N(c3ccc(F)cc3)C(=O)N1[C@@H]1c3ccccc3OC[C@@H]1[C@H]2c1ccccc1	–	inconclusive: 184 µM [cytotoxic, full curve, poor fit]
CCC/C=C/c1ccc(CN2C(CC(C)C)C(=O)N(Cc3cn(CCC4OCCCO4)nn3)CCS2(=O)=O)cc1 (centres undefined)	–	inconclusive: 29.1 µM [cytotoxic, partial curve, poor fit]
CC1CCCC(NC(=O)CN2C(=O)NC(c3ccccc3)(c3ccccc3)C2=O)C1C (centres undefined)	–	inconclusive: 32.6 µM [cytotoxic, single point]
CC(=O)Nc1ccc(CN2CCCC(C(=O)c3ccc(C(F)(F)F)cc3)C2)cc1 (centres undefined)	inactive: 16%	–
Cc1sc(NC(=O)c2ccco2)c(C(c2cccnc2)N2CCC(C)CC2)c1C (centres undefined)	–	active: 18.4 µM
COc1ccc(CCn2c(=N)c(C(=O)NC3CCCCC3)cc3c(=O)n4ccccc4nc32)cc1	–	inconclusive: 23.1 µM [cytotoxic, single point]
CCCCCNC(=O)C(C#N)c1nc2ccccc2nc1N1CCCC1 (centres undefined)	inactive: 2.48%	–
O=C(NCC(F)(F)F)c1cc2c(c(-c3cccc(-c4ccccc4F)c3)n1)[C@H](CCO)N(C(=O)CC1CC1)C2	–	inconclusive: 18.4 µM [cytotoxic, single point]
CC(C)OCc1ccc(C(=O)N2CCN(CC(=O)N3CCCC3)CC2)cc1	inactive: 7.62%	–
Cc1[nH]c2ccccc2c1C(=O)COC(=O)c1c(-c2c(F)cccc2Cl)noc1C	–	inconclusive: 25.9 µM [cytotoxic, single point]
O=C(CCl)N(c1ccccc1)c1ccccc1	–	inconclusive: 23.1 µM [cytotoxic, partial curve, poor fit]
COc1cccc(CNc2nc3cc(-c4ccccc4C)sc3c(=O)n2C)c1OC	–	inconclusive: 29.1 µM [cytotoxic, single point]
CC(=O)N1CCN(c2nc3ccc(Br)cc3s2)CC1	–	inconclusive: 13 µM [cytotoxic, partial curve]
COc1cc(C(=O)Nc2nc3ccc(C)cc3s2)ccc1OCc1c(C)noc1C	–	inconclusive: 12.6 µM [cytotoxic, partial curve, poor fit]
COc1ccc(-n2c(C)cc(=O)[nH]c2=O)cc1	inactive: 0.034%	–

An excerpt from above in order of heavy-atom count, falling.
Compound	activity change, negative = cytotoxic	Potency
CCC(C(=O)NCCc1ccc(OC)cc1OC)n1nc(C)n2c(cc3occc32)c1=O (centres undefined)	inconclusive: -11.6%	–
COc1cc(C(=O)Nc2nc3ccc(C)cc3s2)ccc1OCc1c(C)noc1C	–	inconclusive: 12.6 µM [cytotoxic, partial curve, poor fit]
CCCCCNC(=O)C(C#N)c1nc2ccccc2nc1N1CCCC1 (centres undefined)	inactive: 2.48%	–
